This assay concerns the target T1, ISOFLAVONE SYNTHASE2 (GmIFS2) (soybean (Glycine max)) (UniProt Q9SWR5).
T1 sequence: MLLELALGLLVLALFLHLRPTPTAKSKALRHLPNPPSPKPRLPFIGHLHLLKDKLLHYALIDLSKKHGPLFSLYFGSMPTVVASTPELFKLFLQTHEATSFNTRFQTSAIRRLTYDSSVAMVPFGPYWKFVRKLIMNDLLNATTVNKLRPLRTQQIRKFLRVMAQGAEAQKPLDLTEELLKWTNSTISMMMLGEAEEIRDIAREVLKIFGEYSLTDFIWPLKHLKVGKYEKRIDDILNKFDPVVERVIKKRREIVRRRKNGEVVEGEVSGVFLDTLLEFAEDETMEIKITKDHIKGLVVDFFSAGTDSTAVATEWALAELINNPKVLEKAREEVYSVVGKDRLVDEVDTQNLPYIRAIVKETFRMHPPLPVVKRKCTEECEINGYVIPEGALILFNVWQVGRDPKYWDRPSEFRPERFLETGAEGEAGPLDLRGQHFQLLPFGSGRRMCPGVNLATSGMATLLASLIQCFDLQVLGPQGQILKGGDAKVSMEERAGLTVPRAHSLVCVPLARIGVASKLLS
The assay is described as follows: split reporter; BiFC: GmADT-YC (or AtADT5, PvMATE8-YC, AtCRA1-YC) co-expressed with GmIFS2-YN in N. benthamiana leaves, 1:1 (v/v) co-infiltration, 35S promoter, confocal microscopy 48 h post-infiltration (Figure 7).

These are yes or no findings as the source states them, for the method shown. In cells and extracts the contact can be indirect.

As to “PvMATE8, a protoanthocyanidin transporter protein from common bean”, the binding entry is reported as “no binding”.

Values taken from paper PMC10845154.
